From patent EP0043274A2, “Antithrombotic treatment” (priority 1980, dated 1982)

Tested on: RATS
Test: Rats fed bait containing 0.5% sodium bisulfite
Type: in vivo
Source text: Five rats, each in a separate cage, were given a bait containing 0.5 percent by weight of sodium bisulfite. The bait consisted of cracked grains (wheat, corn, millet, and corn meal). The amounts of bait eaten are summarized for an eleven day period.

In the case of Sodium bisulfite, the g bait eaten (1 day, rats 1-5) is reported as 27.8 g and 25.9 g and 26.7 g and 28.0 g and 27.0 g, the g bait eaten (4 days) is reported as 18.9 g and 10.1 g and 10.4 g and the g bait eaten (9 days) is reported as 26.8 g and 27.8 g and 25.7 g. For the same substance, the g bait eaten (10 days) was 22.7 g and 26.2 g and 26.3 g, the g bait eaten (11 days) was 23.8 g and 21.0 g and 22.8 g and the g bait eaten (line headed 'days' between 2 days and 4 days) was 19.2 g and 19.4 g and 11.4 g.

Values joined by “and” are separate entries in the source; they are usually repeats but may differ in a detail not shown here. Equal entries are not always repeated.
